For at least one compound, name, drawing or mass did not settle the structure.
Assay: In vitro dissolution profile (USP-42 paddle method)
Assay type: physicochemical
Method: Dissolution measurements were carried out using USP-42 paddle method with Symphony 7100 Distek dissolution instrument. Agilent 8453 model UV-Visible spectrophotometer was used at a wavelength at 295.0 nm for the reference drug Griseofulvin standard absorbance measurements that calibrated to measure the formulation polymer incorporated drugs concentration and dissolution percentage estimation.

Q: With `C[C@@H]1C[C@H]2[C@@H]3CCC4=CC(=O)C=C[C@]4(C)[C@@]3(F)[C@@H](O)C[C@]2(C)[C@@]1(O)C(=O)CO` [Dexamethasone (DXM), dexamethasone] as the compound, how does the Initial dissolution rate read?
A: 289.7 µg/min

Q: What about the “50% dissolution time (T50)” value (composites with 0.5 to 1.0% of HFP) of the same compound?
A: 66

Source: patent publication US20250114462A1, “HYDROPHILIC FUNCTIONALIZED PARTICLES IN THE DELIVERY OF HYDROPHOBIC DRUGS” (NEW JERSEY INSTITUTE OF TECHNOLOGY, priority 2023, published 2025)
